Data from publication PMC7950127.
Results are given in words; binding and its absence hold for the method and conditions named. In cells and extracts the contact can be indirect.

Chains of the proteins cited; added tags and fusions are not shown. Lines headed by an entry give the natural chain unless they say otherwise; changes in a name come on top. Residues count along the entry.
UniProt Q83BS7: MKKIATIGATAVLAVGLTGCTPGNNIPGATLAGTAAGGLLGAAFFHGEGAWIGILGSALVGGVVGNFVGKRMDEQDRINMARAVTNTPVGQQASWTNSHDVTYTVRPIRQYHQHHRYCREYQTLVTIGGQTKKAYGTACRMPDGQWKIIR
UniProt P31040, residues 43-664: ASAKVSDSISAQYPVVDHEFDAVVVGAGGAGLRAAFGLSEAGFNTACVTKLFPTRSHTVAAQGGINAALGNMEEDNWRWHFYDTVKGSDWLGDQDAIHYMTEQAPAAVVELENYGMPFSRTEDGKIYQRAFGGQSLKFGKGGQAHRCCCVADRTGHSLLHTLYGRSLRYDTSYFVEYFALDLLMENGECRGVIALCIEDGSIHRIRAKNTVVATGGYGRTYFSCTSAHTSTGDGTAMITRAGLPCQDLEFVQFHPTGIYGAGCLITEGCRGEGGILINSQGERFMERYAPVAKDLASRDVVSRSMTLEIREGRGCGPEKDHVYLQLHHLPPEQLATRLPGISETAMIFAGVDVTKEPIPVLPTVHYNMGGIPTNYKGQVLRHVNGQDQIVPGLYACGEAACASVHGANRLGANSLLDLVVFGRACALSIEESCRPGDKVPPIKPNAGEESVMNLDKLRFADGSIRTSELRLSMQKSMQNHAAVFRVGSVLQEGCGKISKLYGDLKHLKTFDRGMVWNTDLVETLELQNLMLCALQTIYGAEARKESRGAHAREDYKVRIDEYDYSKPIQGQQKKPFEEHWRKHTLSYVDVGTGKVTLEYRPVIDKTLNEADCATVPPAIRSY

Target: Mitochondrial Coxiella effector protein C (MceC, CBU1425) with C-terminal 3XFLAG (Coxiella burnetii) (UniProt Q83BS7)
Test: co-IP

SDHA (from UniProt P31040 43-664)
binding: no binding
